Assay results taken from patent US20200384079A1, “Compositions of Fibroblast Growth Factor LIgands and Methods of Treating Patients Undergoing Ischemia-Reperfusion Therapy” (University of Cincinnati, priority 2017, published 2020).
These are yes or no findings as the source states them, for the method shown. Some results given as binding are weak or reduced against the parent protein; the word gives no strength.

Amino acid sequences for entries named in this document (tags omitted). A change or cut given only in a name is not applied to a line headed by its entry. Residues count along the entry.
UniProt Q04589, residues 22-822: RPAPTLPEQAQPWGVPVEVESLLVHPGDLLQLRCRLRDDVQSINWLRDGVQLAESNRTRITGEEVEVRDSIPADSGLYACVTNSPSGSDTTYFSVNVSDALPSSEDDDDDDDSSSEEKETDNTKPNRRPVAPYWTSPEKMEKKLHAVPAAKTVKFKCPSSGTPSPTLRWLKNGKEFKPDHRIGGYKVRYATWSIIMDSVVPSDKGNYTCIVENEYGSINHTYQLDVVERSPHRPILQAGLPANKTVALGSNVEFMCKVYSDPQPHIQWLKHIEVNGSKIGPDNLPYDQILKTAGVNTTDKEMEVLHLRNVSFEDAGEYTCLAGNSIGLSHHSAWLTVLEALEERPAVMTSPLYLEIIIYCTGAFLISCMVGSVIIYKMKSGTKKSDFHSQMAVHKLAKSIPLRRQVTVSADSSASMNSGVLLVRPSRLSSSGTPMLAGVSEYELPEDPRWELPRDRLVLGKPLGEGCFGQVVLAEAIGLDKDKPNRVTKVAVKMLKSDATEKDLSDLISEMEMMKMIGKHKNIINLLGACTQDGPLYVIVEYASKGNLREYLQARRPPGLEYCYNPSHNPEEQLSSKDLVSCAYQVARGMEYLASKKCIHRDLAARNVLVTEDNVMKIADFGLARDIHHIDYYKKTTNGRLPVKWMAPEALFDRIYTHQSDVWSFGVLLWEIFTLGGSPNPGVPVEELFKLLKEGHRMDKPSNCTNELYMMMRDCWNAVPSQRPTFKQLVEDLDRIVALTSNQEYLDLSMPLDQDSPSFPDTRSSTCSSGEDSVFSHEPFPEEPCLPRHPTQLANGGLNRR
UniProt P05230: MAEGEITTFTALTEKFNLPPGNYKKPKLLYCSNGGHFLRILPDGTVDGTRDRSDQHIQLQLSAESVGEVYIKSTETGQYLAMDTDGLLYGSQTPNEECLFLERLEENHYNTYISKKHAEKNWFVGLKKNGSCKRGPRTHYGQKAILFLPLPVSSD

Target: FGF receptor-1 (FGFR1) in the left ventricle of treated rats (rat) (UniProt Q04589)
Test: in vivo rat heart; inferred from FGFR1 and ERK1/2 phosphorylation immunoblots

FGF1^ΔHBS (FGF1 carrying the K127D/K128Q/K133V triple mutation in its HS-binding site) (from UniProt P05230 1-155) (ligand)
binding: binds
